The campaign covered roughly 52,000 sequences. About 210 (0.4%) were called active.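 How the source made its calls: active means gene whose silencing raises cell survival under the drug, median off-target-corrected z-score across its silencing RNAs 2 or more; inactive means the rest.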 The list shows a part of the results.

This assay is described as follows: Resistance to Poly (ADP-Ribose) Polymerase inhibitor: Gene Identification via Genome-wide siRNA Screen. To be noted: mouse BRCA2 R2336H ES cells, olaparib, CellTiter-Glo viability; active compounds read high. The method, boiled down:
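Mouse BRCA2 R2336H ES cells were reverse-transfected with siRNA (20 nM final), treated at 48 h with 500 nM olaparib, and read by CellTiter-Glo after 72 h. Scores: MAD-based z per siRNA, median per gene, seed off-target correction.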
Turning to GGGCGAGAUGCAUAAGGAUTT against Rohn, the z-score is inactive: 1.81.
As for GGUCAAGUGUCUGAACAACTT against Fkbp8, the z-score is inactive: -0.899.
To “GGCAGACUUUUGACAACUATT against 6430546I09” belongs inactive: -1.4; to GUUUCCUCAAUGUCUCAGUTT against Olfr1461, inactive: 0.934; to GGAAACCGUUUUUUUUUUCTT against Appbp2, inactive: -0.767.
As for CCUGGCACUCAUAGUAUACTT against Tm6sf2, the figure is inactive: 0.163; as for GGGCCUUCAGAAGAACAUGTT against Ganab, inactive: -1.5.
GGAGAACAGUAACAUUUUUTT against Pcdh7: the z-score is inactive: -0.494.
As for GGCCAUAGUCCUGUUCACCTT against Nr2f2, the figure is inactive: 0.454; as for GGACAGAUCUUUGAAGCAGTT against Vps18, inactive: -1.8.
To GGAAAACUAUGCAGGCAUCTT against Capn2 belongs inactive: -0.919.
As for GCUGCGUAGAACCAUAUGCTT against Cst9, the figure is inactive: 1.56; as for GCUAAUCGGAUGCUGAAGCTT against Psmb7, inactive: -1.98.
With GGAAGUAUUGACGAGUGGGTT against BC061259, the z-score is inactive: -0.122.
As for GGUGUUAGGGCUCAAAUAUTT against Glce, the figure is inactive: -1.87.
To CCAUCAUGAACACUCAACATT against Olfr462 belongs inactive: -2.9; to GGCGGAGAAUCACCUCACATT against Tgfbrap1, inactive: -1.14; to CGGAUUUUAAAAGGUCACGTT against Vti1a, inactive: 1.2.
As for GGAGACAUUGUCCUCUACATT against Car14, the figure is inactive: -2.59; as for “GCAGCUUGUAUGCAGCACUTT against 4632417K18Rik”, inactive: 0.136; as for GGAGAUCUUAGCAAAGUAUTT against Degs, inactive: -1.64.
Consider CCUUGGAGUGAAGGAUCGCTT against Cited1, for which the z-score was inactive: 0.387.
As for GUAUGUUUGGGCUUAGCCUTT against Olfr1348, the figure is inactive: -0.426; as for GCAGUGUCAGAGUUAGAAATT against Pon1, inactive: -0.209.
As for CCAUGGUUAACAUUGACAUTT against Ppp1r16b, the figure is inactive: -0.166.
As for GCGCAUUCAGAUUGUAACATT against Nr2c2, the figure is inactive: -0.869; as for “GGUGUGAGUGUCGGAAUCUTT against B930052A04Rik”, inactive: 0.258; as for GGAGCUGAAAACCUGAGGATT against Pkn2, inactive: -1.09.
In the case of GGCAAAAACCAUAAACUAGTT against Clcn4-2, the z-score is inactive: -1.2.
As for “GGGUAACAGAUACUGUUAUTT against A730041O15Rik”, the figure is inactive: 0.642.
To GGACUGCCCUUUGGACAAATT against V1ri1 belongs inactive: -1.41; to CCUCUCCAUACUCACCAUGTT against Fbxo23, inactive: -0.257.
To GCAUAAGUAUAAUCCUGUUTT against Plagl1 belongs inactive: -0.0918; to UGGUUACGAACCCAUGGGUTT against Amelx, inactive: -2.44; to “CCAUUGGUUUUGAGGAUAUTT against 2510048O06Rik”, inactive: -3.24.
Take “GGGAAACUAUUCUAGACGCTT against 1700113O17Rik”: the z-score is inactive: 0.187.
To AGAUAUUUGGCUGUGACCGTT against Amt belongs inactive: 0.816.
CCACGUCUCUUAAGUGAAATT against Scamp1: the z-score is inactive: -0.0595.
As for GGUUGUAGAACAUGAGUUATT against Fcmd, the z-score was inactive: 1.85.
To CCAAGAGAUUGCUAAUUGCTT against Cbfa2t1h belongs inactive: 0.739; to GGGAGGAUGAACAUCAAAGTT against Lace1, inactive: 1.43.
To “GCACAAGAUGUGAAGAUUATT against 1110006I15Rik” belongs inactive: 0.355; to GCUGUAAAACCUGUCGUAATT against Mt4, inactive: 0.196.
To GGAAAGAAUUGAAUACUCGTT against Gpr89 belongs inactive: 0.335; to GGACUCAGCAACAGGUCUUTT against Ors6, inactive: -1.34; to GCAGCUCACCAUCCUUCAATT against Fcnb, inactive: 1.18.
As to GGCCAACCUACUUUUCUGGTT against Mgll, the z-score was inactive: 0.668.
As for GCCAGAAGGACCUCUUCACTT against Arhgap24, the figure is inactive: 0.38; as for GGCCUUCACUGAUGAAUGUTT against C87499, inactive: 0.0325.
To CCACGAAUUAAGUAAUGGUTT against Rtl1 belongs inactive: 0.612; to GCACAAACUUAUGCUCUUUTT against Klrc3, inactive: -0.865.
As for “GGCAUCUCACUGGAAGUGATT against 2810408E11Rik”, the figure is inactive: -0.651; as for GGGUUACACAGAGUACAAATT against Snx15, inactive: -1.95.
As for GGCUGAGUCUGGCUAACUUTT against Dio3, the z-score is inactive: -0.066.
As for CGACAAUCAGGAGAUUGCATT against Npm3, the figure is inactive: -0.0122; as for GGGAAAUUGUAUUCAAUACTT against Cebpz, inactive: 0.657.
To “GGCUGUGUGAGUCUGCUCATT against C030011J08Rik” belongs inactive: -0.00521.
To GGGAAGUGGAAACAGUUCUTT against Icam2 belongs inactive: -0.624; to “GGAUCAUCAGUUUCUUUAUTT against 4930486L24Rik”, inactive: -0.993; to GGUGUCCAAGCAGAAGCAGTT against Rab25, inactive: -0.782.
Turning to GGUCUUCCGGAUCUUCAACTT against Adcyap1r1, the z-score is inactive: 0.433.
For GCAUCUACUAUCCAAGUGATT against Alox15b, the z-score is inactive: -1.12.
As to “GGAACUGGAGAUGCACAGCTT against 1110012J17Rik”, the z-score is inactive: -0.386.
To CCAAUUAUCCUUCUGUUACTT against Olfr790 belongs inactive: 0.0345; to “GGGAAGAGAAACACAGAUGTT against 2410146L05Rik”, inactive: 0.589.
As for GGUAUGAACACUUUCAAAATT against Olfr297, the figure is inactive: 0.543; as for CGACGAACCUGAGUAUAUUTT against Canx, inactive: -0.253.
For GGAAGAAACUGGAAAGAUUTT against Ankrd23, the z-score is inactive: -0.154.
For GGAAGAAUCACCAUUGAAGTT against Plcz1, the z-score was inactive: 1.61.
Turning to “CGUUGUGAGGUUAUACGACTT against 2810442O16Rik”, the z-score was inactive: 0.687.
To “CGAGUUCAUCAAAAAGGAATT against 1110028C15Rik” belongs inactive: -0.0939; to GGAACAAGUCUUCAACUCATT against Wap, inactive: -0.593.
As for GGCCUUUUUGCCACGUAUGTT against Dhrs3, the figure is inactive: 2.34.
As to GCUCUAGAAAGUUACAGAUTT against Crtam, the z-score was inactive: -0.162.
To GGAAAAGCUAAUAAAAGCUTT against Ptgis belongs inactive: -0.54; to GCUUCCACGUGUUUGACCATT against Hsf1, inactive: 0.983; to GGAACACUGGAUUAUUGAGTT against Gamt, inactive: -0.0518.
To GGAGUAUGUCAAUUAGCAUTT against V1re1 belongs inactive: 0.715; to GGUCAACCUAAACCAGCAGTT against Csng, inactive: -1.91; to “CCUAGAGCGUGCCCUAGAATT against 2310066I18Rik”, inactive: 0.0379.
As for GGGAGAAAUGCAAAUAUUUTT against Mbnl2, the figure is inactive: 1.49.
As for GGUUCUCAUAACGACCAAUTT against Ddx25, the z-score was inactive: 0.142.
To “GGGAUGAAUAUUUGUGUCATT against D130060H24Rik” belongs inactive: 0.0958; to GGGAGUAUCCAUUCAAGCCTT against Ube2l6, inactive: 1.05; to GGCGACAUUCUCAUCCUAATT against Slc38a1, inactive: 1.37.
To CCAAGACCCAAACUUACUGTT against Tnnt3 belongs inactive: -1.21; to “GGAAAUGCCACCAAAGAACTT against 9330158F14Rik”, inactive: -0.618.
As for “GCCAUAGAGUAUCAGCUGATT against 4930506L13Rik”, the figure is inactive: -0.581.
Take GGAUUCUGUUCAACAUUGGTT against Olfr1148: the z-score is inactive: 0.536.
To “GCAGUAACGAGGUUUUGAUTT against C030048B08Rik” belongs inactive: -0.239; to “GGAACUGAAAAAGAAAACATT against 2400003C14Rik”, inactive: -0.222.
As for GCCUAGCUUUCUUGUAUUATT against Tas2r144, the figure is inactive: -0.692; as for CGACUUCGCCUUAUGAGAUTT against Tst, inactive: -1.35; as for GGAAAACCAGCUAAUUAUCTT against Ptger3, inactive: 1.22.
As for GGUGGUCUGAUCGUAGACATT against BC027309, the figure is inactive: 0.849; as for “GGAGACUGCUUCUAAAGAUTT against 1810073G14Rik”, inactive: -0.499.
For the sequence “GCUGGAGGGAUGCGAAUCUTT against 2310032F03Rik”, the z-score is inactive: 0.199.
To “GGCCUCUUCCUGCUUCUUATT against 1810021J13Rik” belongs inactive: 0.499; to GCUCUGCCUUCAGAUGAUCTT against Olfr172, inactive: 1.16.
To CCAUCCUUCCAAUUAUGAATT against Rhot1 belongs inactive: 0.21.
To GGAAAAGGCUACGGCAUUUTT against Tapbp belongs inactive: -0.271; to “CCUACAGAAUAGAAAAUUCTT against 9830169G11Rik”, inactive: 0.438; to GGAGGAUACACAGAGGCAUTT against Tcap, inactive: 0.472.
Take GCAAAGAUCCAAAUAUUGUTT against Grp58: the z-score is inactive: 0.335.

The values are drawn from PubChem BioAssay AID1347423 (Functional Genomics Laboratory (NCATS/FGL), 2020).
